From PubChem BioAssay AID1508612

Assay: passive permeability, PAMPA, ADME assay (AID 1508612)
Details: pH 7.4, 30.0 min, 50.0 µM

Structure (SMILES)	Papp
COc1ccc2[nH]c3c(C)c4ccncc4c(C)c3c2c1	> 1000 ×10⁻⁶ cm/s
CCNC(=O)C[C@@H]1N=C(c2ccc(Cl)cc2)c2cc(OC)ccc2-n2c(C)nnc21	334 ×10⁻⁶ cm/s
